# The supplement of paper PMC8728848
# Some of the results follow.
# Experiments:
# Assay in all cases: glycan array binding signal (z-score within array); higher = stronger binding
# Conditions in all cases: glycan notation: IUPAC condensed, linker removed
# [1] = target: Fuc(a1-2)[GalNAc(a1-3)]Gal(b1-4)GlcNAc(b1-6)GalNAc
# Procedure, shortened: (§1)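 The binding signal is a Z-score computed within each array. Data were drawn from 3228 arrays in the Consortium for Functional Glycomics database, restricted to those with a known protein sequence. Scores were averaged over arrays of the same protein sequence at different concentrations or buffers, and over linkers, and negative values can be taken as non-binding.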
# [2] = target: Fuc(a1-2)[GalNAc(a1-3)]Gal(b1-4)[Fuc(a1-3)]GlcNAc
# Procedure, shortened: as §1
# [3] = target: Fuc(a1-2)[GalNAc(a1-3)]Gal(b1-4)[Fuc(a1-3)]GlcNAc(b1-3)GalNAc
# Procedure, shortened: as §1
# [4] = target: Fuc(a1-2)[GalNAc(a1-4)]Gal(b1-4)GlcNAc
# Procedure, shortened: as §1
# [5] = target: Fuc(a1-2)[GalNAc(b1-3)]Gal
# Procedure, shortened: as §1
# Fuc(a1-3)GlcNAc = target: Fuc(a1-3)GlcNAc
# Procedure, shortened: as §1
# [6] = target: Fuc(a1-3)[Gal(b1-4)]Glc6S
# Procedure, shortened: as §1
# [7] = target: Fuc(a1-3)[Gal(b1-4)]GlcNAc
# Procedure, shortened: as §1
# [8] = target: Fuc(a1-3)[Gal(b1-4)]GlcNAc(b1-2)Man
# Procedure, shortened: as §1
# [9] = target: Fuc(a1-3)[Gal(b1-4)]GlcNAc(b1-2)Man(a1-3)[Fuc(a1-3)[Gal(b1-4)]GlcNAc(b1-2)Man(a1-6)]Man(b1-4)GlcNAc(b1-4)GlcNAc
# Procedure, shortened: as §1
# [10] = target: Fuc(a1-3)[Gal(b1-4)]GlcNAc(b1-2)Man(a1-3)[Fuc(a1-3)[Gal(b1-4)]GlcNAc(b1-2)Man(a1-6)]Man(b1-4)GlcNAc(b1-4)[Fuc(a1-6)]GlcNAc
# Procedure, shortened: as §1
# [11] = target: Fuc(a1-3)[Gal(b1-4)]GlcNAc(b1-3)Gal(b1-3)[Fuc(a1-4)]GlcNAc
# Procedure, shortened: as §1
# [12] = target: Fuc(a1-3)[Gal(b1-4)]GlcNAc(b1-3)Gal(b1-4)[Fuc(a1-3)]GlcNAc
# Procedure, shortened: as §1
# [13] = target: Fuc(a1-3)[Gal(b1-4)]GlcNAc(b1-3)Gal(b1-4)[Fuc(a1-3)]GlcNAc(b1-3)Gal(b1-4)[Fuc(a1-3)]GlcNAc
# Procedure, shortened: as §1
# [14] = target: Fuc(a1-3)[Gal(b1-4)]GlcNAc(b1-3)GalNAc
# Procedure, shortened: as §1
# [15] = target: Fuc(a1-3)[Gal(b1-4)]GlcNAc(b1-4)Gal(b1-4)[Fuc(a1-3)]GlcNAc
# Procedure, shortened: as §1
# [16] = target: Fuc(a1-3)[Gal(b1-4)]GlcNAc(b1-4)Gal(b1-4)[Fuc(a1-3)]GlcNAc(b1-4)Gal(b1-4)[Fuc(a1-3)]GlcNAc
# Procedure, shortened: as §1
# [17] = target: Fuc(a1-3)[Gal(b1-4)]GlcNAc(b1-6)GalNAc
# Procedure, shortened: as §1
# [18] = target: Fuc(a1-3)[Gal(b1-4)]GlcNAc(b1-6)[Gal(b1-3)GlcNAc(b1-3)]Gal(b1-4)Glc
# Procedure, shortened: as §1
# [19] = target: Fuc(a1-3)[Gal(b1-4)]GlcNAc6S
# Procedure, shortened: as §1
# [20] = target: Fuc(a1-3)[Gal3S(b1-4)]Glc
# Procedure, shortened: as §1
# [21] = target: Fuc(a1-3)[Gal3S(b1-4)]GlcNAc
# Procedure, shortened: as §1
# [22] = target: Fuc(a1-3)[Gal3S(b1-4)]GlcNAc6S
# Procedure, shortened: as §1
# [23] = target: Fuc(a1-3)[GalNAc(b1-4)]GlcNAc
# Procedure, shortened: as §1
# [24] = target: Fuc(a1-3)[GalNAc(b1-4)]GlcNAc6S
# Procedure, shortened: as §1
# Fuc(a1-4)GlcNAc = target: Fuc(a1-4)GlcNAc
# Procedure, shortened: as §1
# Fuc(b1-3)GlcNAc = target: Fuc(b1-3)GlcNAc
# Procedure, shortened: as §1
# Gal(a1-2)Gal = target: Gal(a1-2)Gal
# Procedure, shortened: as §1
# Gal(a1-3)Gal = target: Gal(a1-3)Gal
# Procedure, shortened: as §1
# Gal(a1-3)Gal(b1-3)GlcNAc = target: Gal(a1-3)Gal(b1-3)GlcNAc
# Procedure, shortened: as §1
binder,measurement,setting,value
"GST-Gap1 (Streptococcus parasanguinis), A1C3L5 (protein) MFYFVPSWYNGQRQWYYDTPWWFRVKNRMTFDDSVNQVKMFLQGQEEIGLMILNYQPQLRYFLHKQNIFGIYYWSFFDDIQNITRSYTKIIHLKDLNWPEGCEFLYSPFAVVVRLKGEIFAIVNYAEDGNLHSVSFQKNGKVTKDYIFDDRGFLSSILYYDIDERPLYQDYLNINGVWQVREFLKKENDPTPILMINDFSDQTFSKKYYNGWEELIKERLAIFQNNHVENEDVFVLASDTQHNQLVSSIFKEHRKIYSFFGNRFNLENLGQDRISINDATFLVVDTEKNEELLRKTCENLVFKSIPIVRLSPFDSRLRLGHSQTVKEQIIYFHIDNIELDELYSVIAIILELMTLHLDIELRIVTFRQDFQLDLLKTWIIDFIKTNHFEDLLFKQISEGENEIEDEGEIELSRIAMECFTNENQIIKCLDTARLVIDLGIEPDLYTQIASISAGIPQINRVSSDYVIHQKNGLVISDISKLSSAIEFYFDGLFNWNEALIYAVRKMSDYTSGKILKQWKGMLKKK",glycan array binding signal (z-score),[1],-1.44
same,glycan array binding signal (z-score),[2],-0.141
same,glycan array binding signal (z-score),[3],0.024
same,glycan array binding signal (z-score),[4],0.392
same,glycan array binding signal (z-score),[5],0.109
same,glycan array binding signal (z-score),Fuc(a1-3)GlcNAc,-0.531
same,glycan array binding signal (z-score),[6],-0.01
same,glycan array binding signal (z-score),[7],-0.306
same,glycan array binding signal (z-score),[8],-0.692
same,glycan array binding signal (z-score),[9],-0.381
same,glycan array binding signal (z-score),[10],0.493
same,glycan array binding signal (z-score),[11],0.056
same,glycan array binding signal (z-score),[12],0.358
same,glycan array binding signal (z-score),[13],-0.426
same,glycan array binding signal (z-score),[14],-0.461
same,glycan array binding signal (z-score),[15],0.372
same,glycan array binding signal (z-score),[16],-0.256
same,glycan array binding signal (z-score),[17],-1.44
same,glycan array binding signal (z-score),[18],-0.333
same,glycan array binding signal (z-score),[19],0.098
same,glycan array binding signal (z-score),[20],0.22
same,glycan array binding signal (z-score),[21],-0.633
same,glycan array binding signal (z-score),[22],0.696
same,glycan array binding signal (z-score),[23],0.035
same,glycan array binding signal (z-score),[24],-0.687
same,glycan array binding signal (z-score),Fuc(a1-4)GlcNAc,-0.282
same,glycan array binding signal (z-score),Fuc(b1-3)GlcNAc,-0.341
same,glycan array binding signal (z-score),Gal(a1-2)Gal,-0.401
same,glycan array binding signal (z-score),Gal(a1-3)Gal,-0.291
same,glycan array binding signal (z-score),Gal(a1-3)Gal(b1-3)GlcNAc,-0.015

# Reprinted at random: two entries already listed
binder,measurement,setting,value
"GST-Gap1 (Streptococcus parasanguinis), A1C3L5 (protein) MFYFVPSWYNGQRQWYYDTPWWFRVKNRMTFDDSVNQVKMFLQGQEEIGLMILNYQPQLRYFLHKQNIFGIYYWSFFDDIQNITRSYTKIIHLKDLNWPEGCEFLYSPFAVVVRLKGEIFAIVNYAEDGNLHSVSFQKNGKVTKDYIFDDRGFLSSILYYDIDERPLYQDYLNINGVWQVREFLKKENDPTPILMINDFSDQTFSKKYYNGWEELIKERLAIFQNNHVENEDVFVLASDTQHNQLVSSIFKEHRKIYSFFGNRFNLENLGQDRISINDATFLVVDTEKNEELLRKTCENLVFKSIPIVRLSPFDSRLRLGHSQTVKEQIIYFHIDNIELDELYSVIAIILELMTLHLDIELRIVTFRQDFQLDLLKTWIIDFIKTNHFEDLLFKQISEGENEIEDEGEIELSRIAMECFTNENQIIKCLDTARLVIDLGIEPDLYTQIASISAGIPQINRVSSDYVIHQKNGLVISDISKLSSAIEFYFDGLFNWNEALIYAVRKMSDYTSGKILKQWKGMLKKK",glycan array binding signal (z-score),Gal(a1-2)Gal,-0.401
same,glycan array binding signal (z-score),[6],-0.01
